Measured data: PubChem BioAssay AID504791 (Drosophila RNAi Screening Center, 2011)
Screen: 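Factors in Argonaute-based small RNA production and activity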 (primary screen). Cells: Drosophila S2-derived reporter cells. Reagents: long dsRNA against Drosophila genes, about 150-250 ng dsRNA per well (siRNA assay); about 80-120 ng (miRNA assay). Duration: about 5 days (siRNA assay); about 4 days (miRNA assay). Treatment: copper sulfate induction of reporters: 25 µM (siRNA assay); 200 mM stated (miRNA assay), 1-2 days before reading. Detection: 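Per-well ratio of Renilla over firefly light, expressed relative to that plate's average ratio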. Active means: 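First-pass picks had plate-scaled ratios over 1.5 for the siRNA assay, over 1.6 for the miRNA assay, or under 0.6; two distinct dsRNAs had to score alike on retest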.
In all, the deposit lists about 23,000 reagents; this is a random part of those that have a named target and a result. Of all reagents, 199 (0.86%) were called active. 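Plate-scaled ratios behind the calls are not deposited; printed light signals are raw; many rows marked increased or decreased are still called inactive.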 Unmarked entries are inactive. A plus sign joins genes that one reagent is predicted to hit. Reagent sequences are not shown. Not given: the direction of the score.

| target | DRSC id | stable siRNA reporter change | miRNA reporter change | stable assay Renilla, run 1 (luminescence) | stable assay firefly, run 1 (luminescence) |
| --- | --- | --- | --- | --- | --- |
| l(2)k10201 | DRSC06439 | – | – | 7134 | 4.04e5 |
| l(2)k10201 | DRSC07640 | – | – | 8307 | 5.13e5 |
| RpL38 | DRSC07818 | – | – | 6690 | 2.97e5 |
| pita | DRSC04006 | – | – | 4875 | 4.27e5 |
| pita | DRSC04435 | – | – | 1.26e5 | 2.29e5 |
| Ctr1C | DRSC15089 | – | – | 6371 | 3.33e5 |
| CG31676 | DRSC02387 | – | – | 7327 | 4.65e5 |
| CG1137 | DRSC12529 | – | – | 6363 | 3.89e5 |
| yellow-c + CIAPIN1 | DRSC01898 | – | – | 7631 | 3.96e5 |
| Naprt | DRSC00630 | – | – | 11891 | 3.97e5 |
| CG1368 | DRSC19537 | – | – | 8123 | 5.27e5 |
| MRG15 | DRSC16731 | – | – | 10739 | 4.27e5 |
| CG17917 | DRSC12570 | – | – | 6596 | 3.94e5 |
| Vlet | DRSC19845 | – | – | 8994 | 4.87e5 |
| CG12069 | DRSC14470 | – | – | 5360 | 3.73e5 |
| COX6B | DRSC19590 | – | – | 7043 | 5.37e5 |
| rost | DRSC03603 | – | – | 6068 | 5.63e5 |
| CG7054 | DRSC16185 | – | – | 10253 | 3.67e5 |
| CG5023 | DRSC15697 | – | – | 5967 | 3.62e5 |
| TkR86C | DRSC16880 | – | – | 6900 | 3.91e5 |
| AcCoAS | DRSC11477 | – | – | 5363 | 3.55e5 |
| AcCoAS | DRSC11603 | – | – | 8126 | 4.18e5 |
| AcCoAS | DRSC22850 | – | – | 4327 | 4.98e5 |
| CG31109 | DRSC14648 | – | – | 7378 | 3.49e5 |
| AANATL7 | DRSC18616 | – | – | 5795 | 3.56e5 |
| CG15458 | DRSC20529 | – | – | 6778 | 3.75e5 |
| tth | DRSC19435 | – | – | 6395 | 4.49e5 |
| ttv | DRSC07709 | – | – | 7887 | 4.49e5 |
| CG15824 | DRSC00473 | – | – | 7776 | 4.18e5 |
| CG34109 | DRSC02169 | – | – | 6783 | 3.44e5 |
| CG34109 | DRSC02224 | – | – | 7139 | 3.31e5 |
| CG34109 | DRSC02225 | – | – | 6368 | 3.81e5 |
| Unc-115b + p24-2 | DRSC16492 | – | reporter ratio raised past the hit cutoff | 7519 | 4.38e5 |
| CstF50 | DRSC15434 | – | – | 10358 | 5.65e5 |
| CCT6 | DRSC20095 | – | – | 7550 | 3.07e5 |
| Cad99C | DRSC15050 | – | – | 6907 | 3.18e5 |
| Cad99C | DRSC16317 | – | – | 8374 | 4.35e5 |
| CG42710 | DRSC01034 | – | – | 4523 | 3.31e5 |
| IA-2 | DRSC00304 | – | – | 12965 | 3.45e5 |
| IA-2 | DRSC00652 | – | – | 14305 | 6.67e5 |
| IA-2 | DRSC23335 | – | – | 3603 | 2.68e5 |
| CG6688 | DRSC16094 | – | – | 7369 | 4.18e5 |
| CG30109 | DRSC05675 | – | – | 6279 | 3.72e5 |
| ZnT63C | DRSC08032 | – | – | 5363 | 4.43e5 |
| ZnT63C | DRSC08033 | – | – | 5204 | 4.98e5 |
| ZnT63C | DRSC08519 | – | – | 8662 | 4.40e5 |
| ZnT63C | DRSC21989 | – | – | 8996 | 6.13e5 |
| Spec2 (retired record) | DRSC12258 | – | – | 7030 | 5.46e5 |
| Spec2 (retired record) | DRSC22886 | – | – | 4043 | 3.71e5 |
| Nthl1 | DRSC03183 | – | – | 6598 | 4.73e5 |
| dnd | DRSC16064 | – | – | 7326 | 3.78e5 |
| ND-ACP | DRSC08724 | – | – | 5772 | 4.09e5 |
| CG13308 | DRSC09979 | – | – | 5999 | 3.46e5 |
| Cp38 | DRSC18453 | – | – | 5414 | 3.37e5 |
| CG15649 | DRSC04240 | – | – | 6315 | 4.22e5 |
| kraken | DRSC00824 | – | – | 7042 | 3.61e5 |
| CG13727 | DRSC10055 | – | – | 6586 | 3.88e5 |
| CG13725 | DRSC10054 | – | – | 5526 | 4.60e5 |
| Cyp6u1 | DRSC05015 | – | – | 37728 | 1.33e6 |
| Nnp-1 | DRSC02165 | – | – | 8084 | 5.71e5 |
| CR32745 | DRSC17442 | – | – | 6331 | 4.93e5 |
| milt | DRSC00965 | – | – | 5894 | 3.81e5 |
| milt | DRSC00966 | – | – | 5275 | 4.50e5 |
| milt | DRSC02281 | – | – | 20779 | 5.78e5 |
| CG32104 | DRSC10127 | – | – | 6016 | 5.13e5 |
| CG32104 | DRSC10128 | – | – | 6131 | 5.47e5 |
| TwdlY | DRSC19153 | – | – | 4028 | 3.77e5 |
| GNBP-like3 | DRSC06385 | – | – | 7148 | 3.98e5 |
| Pdcd4 | DRSC19360 | – | – | 5638 | 5.73e5 |
| Arp10 | DRSC19448 | – | – | 7918 | 5.02e5 |
| CG31516 | DRSC11994 | – | – | 5916 | 4.04e5 |
| Gr93a | DRSC14593 | – | – | 7167 | 3.33e5 |
| Sumo | DRSC03611 | reporter ratio lowered past the hit cutoff (active) | – | 49555 | 9.31e5 |
| SLIRP2 | DRSC16363 | – | – | 6774 | 4.33e5 |
| RpL3 + CG6693 | DRSC16097 | – | – | 8114 | 5.39e5 |
| AANATL6 | DRSC06773 | – | – | 6775 | 3.08e5 |
| Or42a | DRSC04912 | – | – | 7455 | 4.23e5 |
| CG3386 | DRSC08566 | – | – | 6420 | 3.62e5 |
| CG11807 | DRSC06087 | – | – | 11443 | 5.27e5 |
| Septin5 | DRSC06843 | – | – | 7563 | 3.57e5 |
| CG7990 | DRSC19296 | – | – | 3467 | 3.26e5 |
| CG7990 | DRSC20069 | – | – | 5750 | 2.83e5 |
| CG7990 | DRSC23195 | – | – | 1212 | 58164 |
| HUWE1 | DRSC20089 | – | – | 5511 | 4.23e5 |
| Mst84Dc | DRSC12599 | – | – | 6111 | 4.17e5 |
| Gnf1 | DRSC12351 | – | – | 9163 | 3.87e5 |
| Abd-B | DRSC14098 | – | – | 6571 | 4.21e5 |
| Abd-B | DRSC14337 | – | – | 6863 | 3.36e5 |
| Gli | DRSC03332 | – | – | 6994 | 3.80e5 |
| ps | DRSC15149 | – | – | 6351 | 4.14e5 |
| ps | DRSC15151 | – | – | 6131 | 3.53e5 |
| ps | DRSC15152 | reporter ratio raised past the hit cutoff | – | 5970 | 2.03e5 |
| ps | DRSC16388 | – | reporter ratio raised past the hit cutoff | 2579 | 1.04e5 |
| ps | DRSC22989 | – | – | 5691 | 3.86e5 |
| REG | DRSC20273 | – | – | 5498 | 3.64e5 |
| CG13791 (retired record) | DRSC02295 | – | – | 7560 | 5.30e5 |
| dpr19 | DRSC02237 | – | – | 6872 | 3.45e5 |
| Atg1 | DRSC09809 | – | – | 7284 | 4.35e5 |
| Atg1 | DRSC09810 | – | – | 6551 | 4.43e5 |
| Mdr50 | DRSC07467 | – | – | 8247 | 3.85e5 |
| St1 | DRSC04504 | – | – | 43348 | 3.56e5 |
| slam | DRSC03240 | – | – | 9855 | 6.14e5 |
| rdgB | DRSC20365 | – | – | 4244 | 4.00e5 |
| CNMa | DRSC08405 | – | – | 5731 | 3.78e5 |
| Ufl1 | DRSC12527 | – | – | 7872 | 3.86e5 |
| Ndf | DRSC02775 | – | – | 27959 | 6.00e5 |
